About 2,100 (0.66%) of roughly 320,000 compounds were called active. Inconclusive results, whose numbers are uncertain, are shown with a selection of clear calls. Calls come from the whole dose curve; as a rule, active = well fitted inhibition curve with a large enough effect in the signal ratio, with a control signal flat (not every such curve was filed as active); inconclusive = small, poorly fitted or top-dose-only effect, or effect the other way, or a change in a side signal; inactive = flat fitted curve, though single readings scatter; the % refers to the signal ratio. A potency beside an inconclusive call is a rough fit, not a confirmed value.
Experiment: qHTS Assay for Lipid Storage Modulators in Drosophila S3 Cells
Settings: BODIPY lipid droplet fluorescence, 18-24 h, cells fed with added oleic acid; lipid storage change, negative = inhibition: at 46.1 µM (top of the series) unless noted
Procedure, shortened: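 Drosophila S3 cells got compounds at several concentrations plus oleic acid (400 uM solution). Laser-scanning cytometry with 488 nm excitation read lipid droplets at 500-530 nm and cells at 575-640 nm. Percent activity was relative to 20 uM Triacsin C.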
% is set by controls: 0 for no effect and ±100 for the full control effect; potency is the fitted concentration of half-maximal effect.

SMILES	Potency	lipid storage change, negative = inhibition
Cc1cccc(NC(=O)c2ccc(OCc3c(C)noc3C)cc2)c1	inconclusive: 0.326 µM [activator, single point]	–
O=C(Nc1ccc(F)cc1)c1nsc(Cl)c1Cl	–	inconclusive: -14%
O=C(CN1C(=O)C2CCCCC2C1=O)NC1CCCc2ccccc21 (stereo unspecified)	–	inconclusive
COc1ccc(Nc2nc3ccccc3n3cnnc23)cc1	inconclusive: 8.2 µM [activator, partial curve]	–
CCOc1ccccc1NC(=O)CSc1ccc2nnc(-c3cccnc3)n2n1	–	inconclusive: 14.5%
Cc1onc(-c2c(Cl)cccc2Cl)c1C(=O)N1CCOCC1	–	inconclusive: -13%
CS(=O)(=O)N1N=C(c2cccs2)CC1c1ccccc1F (stereo unspecified)	–	inconclusive: -9.98%
Cc1occc1C(=O)N1CCCC(Nc2ccc(C(C)C)cc2)C1 (stereo unspecified)	inconclusive: 35.5 µM [falling, single point]	–
CN1C(=S)N(c2cccnc2)C(=O)/C1=C\c1ccc(N(C)C)cc1	–	inconclusive: -98%
COc1cc(OC)c(C(=O)Nc2cccc3ccccc23)cc1OC	inconclusive: 25.9 µM [falling, single point]	–
COc1ccc(CCNC(=O)CCSc2nc(-c3ccco3)cc(C(F)(F)F)n2)cc1	–	inconclusive: -16.8%
O=C(C(Cc1ccccc1)n1cccc1)N1CCN(C2CCCCC2)CC1 (stereo unspecified)	–	inconclusive: 0.288%
Cc1ccc(N(CC(=O)NC2CCCC2)C(=O)CNC(=O)c2cccs2)cc1C	–	inconclusive: 85.8%
Cc1ccc(-c2cn(-c3ccccc3)c3[n+]2CCCS3)cc1	inconclusive: 29.1 µM [cytotoxic, single point]	–
COc1cccc(/C=N/NC(=O)c2ccc(-n3cnnn3)cc2)c1	–	inconclusive
O=c1ccc2cc(S(=O)(=O)N3CCN(c4ccc(Cl)cc4)CC3)ccc2o1	–	inconclusive: 31.8%
CCOc1ccc(NC(=O)C2CCCN(S(C)(=O)=O)C2)cc1 (stereo unspecified)	–	inconclusive: 25.7%
CCCOc1ccccc1OCC(=O)N1CCN(S(=O)(=O)c2ccc(Cl)cc2)CC1	inconclusive: 13 µM [falling, partial curve, poor fit]	–
Cc1cccnc1NC1CCCCC1	–	inconclusive: 5.15%
CC(=O)Nc1ccc(S(=O)(=O)NC(CC(=O)NC2CCCCC2C)C(C)C)cc1 (stereo unspecified)	–	inactive
O=C(Nc1ccncc1)c1c(Cl)cccc1Cl	–	inconclusive: -73%
COC(=O)c1ccccc1-c1ccc(/C=N/NC(N)=O)o1	–	inconclusive: 16.7%
COCCn1nnnc1C(c1ccccc1OC)N1CCN(c2ccccc2)CC1 (stereo unspecified)	–	inactive
COC(=O)C1=C(Cn2cnc3ccccc32)NC(=O)NC1c1cc(C)ccc1C (stereo unspecified)	–	inconclusive: -11.3%
O=C(Nc1cccc(-n2cnnn2)c1)c1cc(Cl)nc(Cl)c1	–	inconclusive: 270%
Cc1cc(Cl)c2oc(C(=O)N(C)C3CCOC3)c(C)c2c1 (stereo unspecified)	inconclusive: 6.51 µM [activator, single point]	–

SMILES	Potency	lipid storage change, negative = inhibition
Fc1ccc(-c2nnc(SCc3ncc(-c4ccccc4)o3)n2CC2CCCO2)cc1 (stereo unspecified)	inconclusive: 1.3 µM [activator, full curve]	–
O=C(OC(C(=O)Nc1cccc(C(F)(F)F)c1)c1ccccc1)C1CCCCC1 (stereo unspecified)	–	inconclusive: -34.9%
Cn1c(=O)c(/C=C/c2ccc(F)cc2)nc2ccccc21	–	inactive
C/C(=N\NC(=O)c1cccnc1)c1cc2ccccc2o1	–	inconclusive: -32.4%
CC1=C(C)C(=O)N(CCC(=O)O)C1=O	inconclusive: 0.146 µM [activator, full curve, poor fit]	–
CCn1c2ccccc2c2cc(NC(=O)COC(=O)c3cccc(S(=O)(=O)NC)c3)ccc21	inconclusive: 3.26 µM [activator, full curve]	–
COCCN(C(=O)CNC(=O)c1ccco1)C(C(=O)NC1CCCCC1)c1cccnc1 (stereo unspecified)	inconclusive: 2.59 µM [activator, single point]	–
COc1c(F)c(F)c(C(=O)Nc2ccc(N3CCN(C(C)=O)CC3)c(Cl)c2)c(F)c1F	inconclusive: 3.66 µM [activator, single point]	–
CCOC(=O)C1CCCN(c2c(NCCc3ccc(S(N)(=O)=O)cc3)c(=O)c2=O)C1 (stereo unspecified)	inconclusive: 0.82 µM [activator, single point]	–
Cc1ccccc1/C=C/C(=O)c1ccc([N+](=O)[O-])o1	inconclusive: 16.4 µM [cytotoxic, partial curve]	–
Cc1cc(NC(=O)CSCC(=O)Nc2ccccc2N2CCCCC2)no1	–	inconclusive
COC(=O)c1cc(S(=O)(=O)NCC2CCN(Cc3cccc(F)c3)CC2)cn1C	–	inconclusive: 69.3%
O=C(O)C1CC(=O)N(C2CCCCC2)C1c1ccccc1 (stereo unspecified)	–	inactive
O=C(NC1CCCCNC1=O)c1ccco1 (stereo unspecified)	–	inconclusive: -0.678%
Cc1ccc(C(=O)CCC(=O)OCC(=O)Nc2nnc(-c3ccccc3)o2)cc1	–	inconclusive
Cc1ccc(Nc2ncnc3sccc23)c(C)c1	inconclusive: 0.13 µM [activator, full curve, poor fit]	–
NNC(=O)c1ccc(CN2CCCCC2)o1	–	inconclusive: -2.62%
C#CC(=O)N(c1ccc(OC)cc1OC)C(C(=O)NC1CCCC1)c1cccs1 (stereo unspecified)	inconclusive: 16.4 µM [cytotoxic, single point]	–
Cc1cc(C)cc(N(C(C)C(=O)NC2CCCC2)S(C)(=O)=O)c1 (stereo unspecified)	–	inconclusive: -21%
CN(C)S(=O)(=O)c1ccc(N2CCCC2)c(C(=O)Nc2ccccc2)c1	–	inconclusive: 17.4%
CN(C)c1ccc(CNCC2CCCO2)cc1 (stereo unspecified)	–	inconclusive: -0.17%
COC(=O)c1cccnc1NC(=S)NNC(=O)c1ccncc1	–	inconclusive: 0.0732%
COc1cc(CN(C)C)cc(C=O)c1O	–	inconclusive: 30.2%
Cc1cccc(NC(=O)c2cccc(NC3=NC4CS(=O)(=O)CC4S3)c2)c1 (stereo unspecified)	inconclusive: 0.0517 µM [activator, full curve, poor fit]	–
CCN1C(=O)/C(=C2\SC(=S)N(c3c(C)n(C)n(-c4ccccc4)c3=O)C2=O)c2ccccc21	–	inconclusive: 8.94%
COc1ccc(OC)c(S(=O)(=O)Nc2cccc(C(C)=O)c2)c1	inconclusive: 8.2 µM [activator, partial curve, poor fit]	–

SMILES	Potency	lipid storage change, negative = inhibition
O=C(Cc1cccs1)NCc1cn2ccccc2n1	–	inconclusive: 0.0341%
COc1cccc([C@@H]2CC=C(C(=O)O)CN2S(=O)(=O)c2ccc(C)cc2)c1	inconclusive: 29.1 µM [activator, single point]	–
CCOC(=O)C1CCN(S(=O)(=O)c2ccc3[nH]c(=O)ccc3c2)CC1	inconclusive: 0.517 µM [activator, full curve]	–
O=C(CN(c1ccccc1)S(=O)(=O)c1ccc(F)cc1)NC1CCS(=O)(=O)C1 (stereo unspecified)	–	inconclusive: 46.4%
NCCc1c(C(=O)O)[nH]c2ccc([N+](=O)[O-])cc12	–	inconclusive: -16.1%
COc1cc(C)ccc1OCCCCN1CC(C)OC(C)C1 (stereo unspecified)	–	inconclusive: 18.2%
O=C1C(Cl)=C(Nc2ccc(O)cc2)C(=O)c2ccccc21	–	inconclusive: -17.8%
COc1cc(C#Cc2c(C=O)n(C)c3ccccc23)cc(OC)c1	–	inconclusive: 8.36%
COc1ccc(C(CNC(=O)c2cccc3cccnc23)N(C)C)cc1 (stereo unspecified)	inconclusive: 10.3 µM [activator, partial curve]	–
CCN(CC(=O)Nc1ccc(NC(C)=O)cc1)C(=O)c1ccc2c(c1)OCO2	–	inconclusive: 32.8%
Nn1c(SCC(=O)NC(=O)NCc2ccccc2)nnc1C1CC1	–	inconclusive: 11.8%
COC(=O)/C(=C/c1ccc(F)cc1)NC(C)=O	–	inconclusive: 12.8%
Nc1ccc(C(=O)N/N=C\c2cc(N=Nc3cccc4ccccc34)ccc2O)cc1	inconclusive: 18.4 µM [cytotoxic, single point]	–
CCOC(=O)C1=CC[C@@H](c2ccccc2Cl)N(S(=O)(=O)c2ccc(C)cc2)[C@H]1C(=O)OCC	inconclusive: 0.146 µM [falling, full curve, poor fit]	–
CN(C)/C=C(\C=O)c1cccc(Cl)c1	–	inconclusive: -23.2%
O=C(Nc1ccc(N2CCCC2)cc1)c1ccc([N+](=O)[O-])cc1Cl	–	inconclusive: 5.26%
Cc1cc(NC(=O)CCN2C(=O)C3C4CCC(C4)C3C2=O)cc(C)c1Br (stereo unspecified)	inconclusive: 32.6 µM [falling, single point]	–
Cc1cc(F)ccc1S(=O)(=O)Nc1ccc(C(=O)N(C)Cc2ccco2)cc1	inconclusive: 0.103 µM [activator, full curve, poor fit]	–
CC1(N2CCOCC2)CC2(O)C(=[N+]1[O-])CCc1nonc12 (stereo unspecified)	inconclusive: 7.31 µM [activator, partial curve, poor fit]	–
Cc1cc(-c2nn(-c3ccccc3F)cc2CN2CCCC(CO)C2)c(C)s1 (stereo unspecified)	inconclusive: 18.4 µM [falling, partial curve, poor fit]	–
CC(OC(=O)CCc1nc2ccccc2c(=O)[nH]1)C(=O)NCc1ccc2c(c1)OCO2 (stereo unspecified)	inconclusive: 1.84 µM [activator, partial curve]	–
CCOC(=O)C1=C(C)OC(N)=C(C(=O)OCC)C1c1cccnc1 (stereo unspecified)	inconclusive: 0.116 µM [activator, full curve, poor fit]	–
O=C(NCCc1ccc(Cl)cc1)C(=O)c1c[nH]c2ccccc12	inconclusive: 29.1 µM [falling, single point]	–
COC(=O)Nc1ccc(N2CCOCC2)c(S(=O)(=O)N2CCOCC2)c1	–	inconclusive: -18.3%

Part of the list above, set out differently:
SMILES | Potency | lipid storage change, negative = inhibition
Cc1cc(NC(=O)CCN2C(=O)C3C4CCC(C4)C3C2=O)cc(C)c1Br (stereo unspecified) | inconclusive: 32.6 µM [falling, single point] | –
Cc1cc(F)ccc1S(=O)(=O)Nc1ccc(C(=O)N(C)Cc2ccco2)cc1 | inconclusive: 0.103 µM [activator, full curve, poor fit] | –
CC1(N2CCOCC2)CC2(O)C(=[N+]1[O-])CCc1nonc12 (stereo unspecified) | inconclusive: 7.31 µM [activator, partial curve, poor fit] | –

Pulled by compound from above (2):
SMILES	Potency	lipid storage change, negative = inhibition
CCOC(=O)C1=C(C)OC(N)=C(C(=O)OCC)C1c1cccnc1 (stereo unspecified)	inconclusive: 0.116 µM [activator, full curve, poor fit]	–
Cc1cc(-c2nn(-c3ccccc3F)cc2CN2CCCC(CO)C2)c(C)s1 (stereo unspecified)	inconclusive: 18.4 µM [falling, partial curve, poor fit]	–

— PubChem BioAssay AID2685 (National Center for Advancing Translational Sciences (NCATS), 2010)
